PubChem BioAssay AID493246 – Drosophila RNAi Screening Center – 2011
The deposit covers about 21,000 reagents; shown is an unselected part of those with a known target gene and a result. In the full data, 429 (2%) were called active. 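Values are raw and not normalised between plates; calls rest on per-plate z-scores that were not deposited.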 The numbers tell different reagents against one gene apart. A plus sign joins genes that one reagent is predicted to hit. The record does not give: the amount of reagent, the time to read-out.

Aim: 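Identify essential fly genes by loss of cell viability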 (primary screen)
System: Drosophila Kc and S2R+ cells
Reagent: long dsRNA against Drosophila genes
Detection: 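Raw, unnormalised count of remaining cells in each well; per-plate z-scores of cell number underlie the calls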
Direction: Kc cell number and S2R+ cell number: higher = more cells remaining
Hit rule: 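Active when the per-plate z-score of cell number is 3 or more in the direction of fewer cells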

predicted target	reagent	Kc cell number, rep 1	Kc cell number, rep 2	S2R+ cell number, rep 1	S2R+ cell number, rep 2	outcome
rtet	1	1.66e6	1.63e6	1.34e6	1.35e6	inactive
ENGase	1	1.47e6	1.49e6	1.03e6	1.15e6	inactive
Prps	1	1.18e6	1.27e6	8.92e5	1.04e6	inactive
Prps	2	1.24e6	1.26e6	8.83e5	9.94e5	inactive
Prps	3	1.24e6	1.23e6	9.55e5	1.04e6	inactive
CG11504	1	5.01e5		8.63e5		inactive
e(y)2	1	1.59e6	1.50e6	9.70e5	1.04e6	inactive
Camp	1	1.50e6	1.56e6	1.18e6	1.27e6	inactive
CG8128	1	5.83e5		9.41e5		inactive
CG15260	1	1.49e6	1.59e6	1.26e6	1.40e6	inactive
Cap-D3 + tomb	1	1.55e6	1.42e6	1.20e6	1.38e6	inactive
CG18048	1	1.48e6	1.57e6	1.24e6	1.34e6	inactive
B52	1	1.52e6	1.54e6	1.21e6	1.24e6	inactive
CG13481	1	1.36e6	1.44e6	1.27e6	1.39e6	inactive
CG31446	1	1.61e6	1.82e6	1.15e6	1.32e6	inactive
CG4681	1	1.57e6	1.65e6	1.27e6	1.42e6	inactive
CG42331	1	1.53e6	1.45e6	9.26e5	1.07e6	inactive
Vajk3	1	1.31e6	1.42e6	1.27e6	1.25e6	inactive
CG15358	1	1.45e6	1.54e6	1.07e6	1.22e6	inactive
Gcna	1	5.06e5		7.80e5		inactive
CG5023	1	1.47e6	1.60e6	9.53e5	1.02e6	inactive
Jhedup	1	1.58e6	1.58e6	1.12e6	1.25e6	inactive
CG3386	1	1.61e6	1.49e6	1.15e6	1.31e6	inactive
Adk3	1	1.54e6	1.58e6	1.21e6	1.32e6	inactive
CG14566	1	1.32e6	1.42e6	1.26e6	1.35e6	inactive
CG11983	1	1.73e6	1.73e6	1.35e6	1.51e6	inactive
lost	1	1.41e6	1.47e6	1.12e6	1.31e6	inactive
lost	2	1.30e6	1.34e6	1.09e6	1.13e6	inactive
zpg	1	1.33e6	1.42e6	1.19e6	1.19e6	inactive
CG3021	1	1.50e6	1.55e6	1.06e6	1.21e6	inactive
CG3021	2	1.74e6	1.79e6	1.09e6	1.26e6	inactive
Nup35	1	1.52e6	1.53e6	1.06e6	1.22e6	inactive
SK	1	1.59e6	1.68e6	1.07e6	1.14e6	inactive
SK	2	1.59e6	1.58e6	9.81e5	1.05e6	inactive
SK	3	1.56e6	1.54e6	9.97e5	1.15e6	inactive
SK	4	1.51e6	1.44e6	1.02e6	1.11e6	inactive
SK	5	6.52e5		9.03e5		inactive
Nep4	1	1.49e6	1.57e6	1.17e6	1.25e6	inactive
pod1	1	5.77e5		9.09e5		inactive
Sec5	1	1.16e6	1.26e6	1.03e6	9.82e5	inactive

No new results follow: 2 of the entries above.
predicted target	reagent	Kc cell number, rep 1	Kc cell number, rep 2	S2R+ cell number, rep 1	S2R+ cell number, rep 2	outcome
CG31446	1	1.61e6	1.82e6	1.15e6	1.32e6	inactive
CG4681	1	1.57e6	1.65e6	1.27e6	1.42e6	inactive
